Results are given in words; binding and its absence hold for the method and conditions named. Some results given as binding are weak or reduced against the parent protein; the word gives no strength.
What was measured:
[1] = molecular target: human C-MET His tagged, monomeric (human) (UniProt P08581); test: Alphascreen epitope competition in solution: varied IgG4(S228P) against 224G11 IgG4(S228P) binding to biotinylated human C-MET, CPS
[2] = molecular target: human C-MET His tagged, monomeric (human) (UniProt P08581); test: SPR Biacore
[3] = molecular target: human C-MET human Fc tagged recombinant protein (human) (UniProt P08581); test: direct titration ELISA on coated human C-MET-Fc, IgG4(S228P), Abs 450 nm
[4] = molecular target: cynomolgus monkey C-MET human Fc tagged recombinant protein (cynomolgus monkey); test: direct titration ELISA on coated cyno C-MET-Fc, IgG4(S228P), Abs 450 nm
[5] = molecular target: human C-MET human Fc tagged recombinant protein (human) (UniProt P08581); test: direct titration ELISA on C-MET-Fc
[6] = molecular target: cynomolgus monkey C-MET human Fc tagged recombinant protein (cynomolgus monkey); test: direct titration ELISA on C-MET-Fc
[7] = molecular target: human C-MET on stably transfected CHO-K1 cells (human) (UniProt P08581); test: flow cytometry, C-MET CHO-K1 cells
[8] = molecular target: cynomolgus monkey C-MET on stably transfected CHO-K1 cells (cynomolgus monkey); test: flow cytometry, C-MET CHO-K1 cells

Measured: binding

B1: 04E10 (antibody, IgG4, V domains shown)
VH: QVQLVQSGAEVKKPGASVKVSCKASGYIFTSYTMHWVRQAPGQGLEWMGWIKPNNGSASYAQKFQGRVTMTRDTSTSTVYMELSSLRSEDTAVYYCARSEITTEEDYWGQGTLVTVSS
VL: EIVLTQSPGTLSLSPGERATLSCRASQSVDSYANSYLHWYQQKPGQAPRLLIYRGSTRESGIPDRFSGSGSGTDFTLTISRLEPEDFAVYYCQQSKSEPLTFGGGTKVEIK
binds: all assays above

Reference: US20260042850A1
